Experimental data from US9849194B2, “Compositions and methods for imaging and treatment” (New York University, priority 2014, dated 2017).

Test system: HeLa cells
Assay: Inhibition of HeLa cell growth, CellTiter-Blue
Assay type: cell-based
Conditions: 48 hours
Excerpt: In vitro cell viability assay. The effect of Dox and Dox-CB[7]NPs was studied using the CellTiter-Blue® Cell Viability assay (CTB, Promega) which measures the metabolic activity of the cells. The reduction of the reagent dye resazurin into fluorescent resorufin due provides a measure of cell viability. Resorufin diffuses out of the cell into the medium after its formation. The fluorescent intensity of medium will indicate the toxicity of the drug as only viable cells have the ability to breakdown resazurin and its breakdown is proportional to the number of viable cells present. To determine the anti-cancer properties and efficacy of Dox-CB[7]NPs in Dox delivery, inhibition of HeLA cell growth with Dox-CB[7]NPs and with free Dox was studied.
Two 96 well plate of HeLa cells (˜5000 cells/100 μL) were prepared and incubated at 37° C. After 24 hours, DMEM from one of the well plates was removed and replaced with various concentrations of Dox solution ([Dox]=5 μM, 10 μM, 15 μM, 20 μM, 30 μM, and 50 μM, respectively). […] The fluorescence emission of the medium at 590 nm was measured. […]
The percentage of cell inhibition and cell viability was calculated using the following formula: Viability (%)=[(Ftreated−Fblank)/(Fcontrol−Fblank)]×100 Inhibition (%)=100−viability (%)

- IC50: 3000 nM
Compound: COc1cccc2c1C(=O)c1c(O)c3c(c(O)c1C2=O)C[C@@](O)(C(=O)CO)C[C@@H]3O[C@H]1C[C@H](N)[C@H](O)[C@H](C)O1 [Dox, Doxorubicin]
